Measurements as given in PubChem BioAssay AID504467 (National Center for Advancing Translational Sciences (NCATS), 2011).
Out of some 330,000 compounds screened, about 7,700 (2.3%) were called active. Inconclusive means that the source gave no clear call. Such entries were picked first, then a sample of the others. Calls follow the shape of the dose curve; as a rule, active = well fitted inhibition curve with a large enough effect; inconclusive = small, poorly fitted or top-dose-only effect, or effect the other way; inactive = flat fitted curve, though single readings scatter. Potencies of inconclusive entries are doubtful fits and often do not repeat.

Assay: qHTS screen for small molecules that inhibit ELG1-dependent DNA repair in human embryonic kidney (HEK293T) cells expressing luciferase-tagged ELG1; also: nearly all actives have a fitted effect of over 55% in size
Conditions: HEK293T ELG1-luciferase reporter, luminescence, 16 h, DNA damage induced by 5-fluorouridine; series mostly up to 46.1 µM
Summary of the method: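 Overnight (16 hr) co-exposure of 2,000 cells/well to 5-fluorouridine and compound at 37 °C preceded detection. Luciferase was quantified via ONE-Glo luminescence; loss of signal denotes inhibition.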
Potency is read from the fitted curve at half-maximal effect.

Row | SMILES | Potency
1 | COc1ccccc1CCNC(=O)C1CCN(C(=O)/C=C/c2ccccc2)CC1 | inconclusive: 13 µM [activator, partial curve]
2 | COc1ccc(C(=O)NC(=S)NCc2cccnc2)cc1Cl | inconclusive: 9.2 µM [inhibitor, partial curve, poor fit]
3 | CSC1=NC(=O)/C(=C/c2ccc(SC)cc2)S1 | inconclusive: 16.4 µM [activator, partial curve]
4 | Nc1ccc(C(=O)Oc2ccc([N+](=O)[O-])cc2)c(O)c1 | inactive
5 | COc1ccc(OC)c(NC(=O)c2cc(-c3cc(C)cc(C)c3O)n[nH]2)c1 | inactive
6 | Cc1onc(-c2ccccc2)c1C(=O)N1CCCc2ccccc21 | inactive
7 | Cc1ccc(-c2nnc(N3CCN(C(=O)COc4ccccc4)CC3)c3ccccc23)cc1 | active: 20.6 µM
8 | CC(C)Oc1cccc(C(=O)Nc2ncn[nH]2)c1 | inconclusive: 4.47 µM [activator, partial curve, poor fit]
9 | COc1ccccc1-c1cc(SC)c(C#N)c(=O)o1 | inconclusive: 8.2 µM [inhibitor, partial curve]
10 | CCC(c1ccccc1)c1nc(-c2ccccn2)no1 (stereo not drawn) | inconclusive: 16.4 µM [activator, partial curve]
11 | N=C(N)SCc1ncccc1O | inactive
12 | Cc1ccc(S(=O)(=O)N2CCN(CCOc3cccc(C)c3)CC2)cc1 | inactive
13 | O=S(=O)(Nc1ccc2nc(-c3ccco3)[nH]c2c1)c1ccccc1 | inconclusive: 18.4 µM [activator, partial curve]
14 | Cc1ccc(S(=O)(=O)c2cc(OC(=O)c3ccco3)ccc2OC(=O)c2ccco2)cc1 | inactive
15 | CC(=O)Nc1ccc(NC(=O)c2nc(S(=O)(=O)Cc3cccc(C)c3)ncc2Cl)cc1 | inconclusive: 18.3 µM [inhibitor, partial curve]
16 | S=c1[nH]ncn1/N=C/c1ccc(N2CCOCC2)cc1 | inconclusive: 16.4 µM [activator, partial curve]
17 | CCC(=O)NNc1nc2c(F)cc(F)cc2s1 | inactive
18 | COc1ccc(N2CCN(C(=S)Nc3ccc(OC)cc3OC)CC2)cc1 | inactive
19 | CCc1ccccc1NC(=O)c1ccc2snnc2c1 | inconclusive: 25.9 µM [activator, partial curve, poor fit]
20 | COc1ccc(S(=O)(=O)N2CCCC2CNC(=O)C(=O)NCc2cccs2)cc1 (stereo not drawn) | inconclusive: 25.9 µM [inhibitor, single point]
21 | Oc1cc(OCc2ccccc2)ccc1-c1[nH]ncc1-c1ccccc1 | inactive
22 | Cc1cc(OCCCC(=O)NCCN2C(=O)S/C(=C\c3cccnc3)C2=O)ccc1Cl | inconclusive: 23.1 µM [inhibitor, partial curve]
23 | C/C(=N\NC(=O)C1(C)CC1(Br)Br)c1cccc(NC(=O)C2CCC2)c1 (stereo not drawn) | inconclusive: 29.1 µM [inhibitor, single point]
24 | NS(=O)(=O)c1cc2c(cc1Cl)NC(c1ccccc1OCC(=O)O)NS2(=O)=O (stereo not drawn) | inactive
25 | Cc1ccc(NC(=O)CN(C)C(=O)c2sc3cc(Cl)ccc3c2Cl)cc1 | inconclusive: 20.6 µM [activator, single point]

Ordered by formula weight (low to high): three of the compounds above.
Row | SMILES | Potency
17 | CCC(=O)NNc1nc2c(F)cc(F)cc2s1 | inactive
19 | CCc1ccccc1NC(=O)c1ccc2snnc2c1 | inconclusive: 25.9 µM [activator, partial curve, poor fit]
1 | COc1ccccc1CCNC(=O)C1CCN(C(=O)/C=C/c2ccccc2)CC1 | inconclusive: 13 µM [activator, partial curve]

Continuation.

Row | SMILES | Potency
26 | COc1ccc(N=CC2=C(O)CC(C)(C)CC2=O)cc1 | inconclusive: 29.1 µM [activator, single point]
27 | Cc1ccnc(SCc2cn3c(C)cccc3n2)n1 | inconclusive: 29.1 µM [activator, single point]
28 | O=C(NC(=S)NNC(=O)c1ccccc1O)c1ccc([N+](=O)[O-])cc1 | inconclusive: 25.9 µM [inhibitor, single point]
29 | Cc1csc(NC(=O)CCc2nc3ccccc3s2)n1 | inconclusive: 32.6 µM [activator, partial curve, poor fit]
30 | O=C(NC(=S)Nc1cccnc1)c1cc2ccccc2o1 | inconclusive: 18.4 µM [activator, partial curve]
31 | Cc1cc(NC(=O)c2noc3c2CCc2ccccc2-3)no1 | inconclusive: 18.4 µM [activator, partial curve]
32 | COc1cccc(NC(=O)Nc2ccc(C)c(Cl)c2)c1 | inconclusive: 9.2 µM [activator, partial curve]
33 | Cc1ccc(NC(=O)c2c(C)noc2-c2snnc2C)cc1 | inconclusive: 18.3 µM [inhibitor, single point]
34 | O=C(Nc1nc2ccccc2[nH]1)c1ccccc1 | inconclusive: 0.517 µM [activator, full curve]
35 | Cc1nnc(Sc2cc(C(=O)NCc3ccco3)c3ccccc3n2)s1 | inconclusive: 8.2 µM [inhibitor, partial curve]
36 | Cc1nn(-c2ccccc2)c(C)c1C(=O)OCC(=O)Nc1cccc(S(N)(=O)=O)c1 | inconclusive: 18.3 µM [inhibitor, single point]
37 | CC(C)C(=O)Nc1ccc2nn(-c3ccc(F)cc3)nc2c1 | inconclusive: 0.92 µM [activator, full curve]
38 | CCC(=O)N1CCCc2cc(S(=O)(=O)N3CCN(c4ccccn4)CC3)ccc21 | inactive
39 | O=C(/C(=N\Nc1ccc([N+](=O)[O-])cc1)Sc1nnnn1-c1ccccc1)c1ccccc1 | inactive
40 | Cc1cccc(NC(=O)Cn2nnc(C(=O)Nc3ccc(F)c(Cl)c3)c2N)c1 | inactive
41 | O=C(O)C1CCCCN1C(=O)c1cc2c(s1)CCCCC2 (stereo not drawn) | inactive
42 | COc1ccc(-c2nc(-c3ccncc3)no2)c(OC)c1 | inconclusive: 0.708 µM [activator, full curve]
43 | COc1ccc(-c2noc(N3CCC(C(=O)Nc4cc(OC)c(OC)c(OC)c4)CC3)n2)cc1 | inactive
44 | CCCCN(C)C/C(O)=C(\C#N)c1nc(-c2ccccc2)cs1 | inconclusive: 29.1 µM [activator, single point]
45 | Cc1ccc(S(=O)(=O)N[C@H](C(=O)OCC(=O)NC(=O)NCc2ccco2)C(C)C)cc1 | inconclusive: 18.3 µM [inhibitor, single point]
46 | Cc1ccc(-c2cc(C(=O)N/N=C/c3c(C)nn(-c4ccccc4)c3C)n[nH]2)s1 | inconclusive: 29.1 µM [inhibitor, single point]
47 | O=C(Nc1cccc(Br)c1)c1cc(S(=O)(=O)N2CCOCC2)cs1 | active: 16.4 µM
48 | CC(C)OC(=O)c1ccc(COc2ccc3ccc(=O)oc3c2)o1 | inconclusive: 18.3 µM [activator, partial curve]
49 | COc1ccc(C(=O)COC(=O)c2ccn(C)n2)cc1 | inconclusive: 20.6 µM [activator, partial curve]
50 | COc1ccccc1NC(=S)N=Nc1c(O)[nH]c2ccc(Br)cc12 | inconclusive: 4.11 µM [inhibitor, single point]

Row | SMILES | Potency
51 | Cn1c(=O)c2c(ncn2CC(=O)N2CCN(C(=O)c3ccco3)CC2)n(C)c1=O | inactive
52 | c1ccc(C[C@H]2CNCCN2CCc2cccc3ccccc23)cc1 | inactive
53 | CCc1cccc(CC)c1NC(=O)COC(=O)CC1c2ccccc2CCN1S(=O)(=O)c1ccc(F)cc1 (stereo not drawn) | inconclusive: 25.9 µM [inhibitor, partial curve, poor fit]
54 | CCCCN1C[C@H](C)[C@@H](CC(=O)NCc2ccccc2)C1=O | inactive
55 | Oc1ccc(/C=C/c2ccc3ccccc3n2)cc1 | inconclusive: 0.259 µM [activator, partial curve]
56 | O=C(O)c1sccc1Oc1ccc(F)cc1[N+](=O)[O-] | inactive
57 | CCC(=O)c1ccc(OCC(=O)NCCC2=CCCCC2)c(OC)c1 | inactive
58 | Oc1ccc(Cl)cc1CNc1ccc(Br)cn1 | inconclusive: 10.3 µM [activator, partial curve]
59 | Cc1nccc(-c2cccc(N/N=C(\C#N)C(=O)c3ccccc3)c2)n1 | active: 14.6 µM
60 | COc1ccc(CCN2CC(C(=O)NCCc3cn[nH]c3)CCC2=O)cc1 (stereo not drawn) | inactive
61 | O=C(Nc1cccc(Cl)c1)c1ccc(S(=O)(=O)NCC2CCCO2)cc1 (stereo not drawn) | inactive
62 | Cc1c(NS(=O)(=O)c2ccc3c(c2)NC(=O)CC(=O)N3)cccc1[N+](=O)[O-] | inactive
63 | COc1ccc(CCN2CCCC(CN(C)C(=O)c3ccoc3C)C2)cc1 (stereo not drawn) | inconclusive: 18.3 µM [activator, single point]
64 | COc1ccc(/C=C/C(=O)OCC(=O)c2ccccc2F)cc1 | inconclusive: 20.6 µM [activator, partial curve]
65 | O=c1c2ccccc2nc(-c2ccccc2)n1/N=C/c1ccc([N+](=O)[O-])cc1 | inconclusive: 18.4 µM [activator, single point]
66 | O=C(NCc1ccco1)c1ccc(Cn2c(=S)[nH]c3ccccc3c2=O)cc1 | inconclusive: 16.4 µM [inhibitor, partial curve]
67 | O=C(Nc1ccc(Oc2cccnc2)cc1)c1ccc([N+](=O)[O-])cc1 | inconclusive: 6.51 µM [inhibitor, single point]
68 | CCc1cc(=O)oc2c(C)c(OCC(=O)NCCCn3ccnc3)ccc12 | inactive
69 | COc1cccc(C(=O)c2c[nH]c(C(=O)NCCCN(C)C)c2)c1 | inconclusive: 29.1 µM [inhibitor, single point]
70 | CCN(CC)CCCNC(=O)CSc1c2c(nc3cc(Cl)ccc13)CCCC2 | inconclusive: 18.3 µM [activator, single point]
71 | CC(Sc1ccc(S(=O)(=O)N2CCOCC2)cn1)c1ccccc1Cl (stereo not drawn) | inconclusive: 32.6 µM [inhibitor, single point]
72 | CCc1ccc(N(C(=O)CNC(=O)c2ccco2)C(C(=O)NC2CCCC2)c2ccncc2)cc1 (stereo not drawn) | inactive
73 | COC(=O)c1ccccc1NC(=O)CN(c1c(C)cccc1C)S(C)(=O)=O | inactive

Part of the list above, with each value named.
O=C(O)c1sccc1Oc1ccc(F)cc1[N+](=O)[O-]
  Potency: inactive
CCC(=O)c1ccc(OCC(=O)NCCC2=CCCCC2)c(OC)c1
  Potency: inactive
Oc1ccc(Cl)cc1CNc1ccc(Br)cn1
  Potency: inconclusive: 10.3 µM [activator, partial curve]
